Here are results for twelve compounds from publication PMC12716008 (Chemistry & Biodiversity, 2025).

Structures are written as SMILES.

The test system of data set [1] is M. smegmatis biofilm formation. In words: Mycobacterial biofilm inhibition, microtitre antibiofilm assay (MBIC). Format: cell-based, Mycobacterium smegmatis. As to conditions: biofilm selective index.
The subject of data set [2] is methicillin‐resistant S. aureus (MRSA) AH1263 or LAC. The data set is described as follows: Antistaphylococcal activity, broth microdilution (MIC). In kind it is cell-based, Staphylococcus aureus. As to conditions: resistant (MRSA) versus susceptible (MSSA) strain, from MIC. Background: Broth dilution looks for growth in wells or tubes with falling amounts of substance.

Data set [3] concerns MRSA AH1263 or LAC biofilm formation. In words: Staphylococcal biofilm inhibition, crystal violet microtitre test (MBIC). In kind it is cell-based, Staphylococcus aureus. As to conditions: biofilm selective index.
In data set [4] the test system is African green monkey kidney (Vero) cell line. In words: Cytotoxicity, Presto Blue cell viability. Format: cell-based. The settings on record: selective index, IC50 (Vero)/MIC against Mycobacterium smegmatis. The protocol:
(§1) The human monocyte (U937) and African green monkey kidney (Vero) cell lines were used in this study to determine the cytotoxic potential of the quinoline derivatives. The cell lines were purchased from Separation Scientific SA (Pty) Ltd. (Johannesburg, South Africa) and maintained in Roswell Park Memorial Institute (RPMI) 1640 and Eagle's Minimal Essential Medium (EMEM), supplemented with 10% heat‐inactivated foetal bovine serum (FBS), 1% antibiotics (100 U/mL penicillin and 100 µg/mL streptomycin) and 1% antifungal agent (250 µg/mL amphotericin B) as previously described. The cells were cultured at 37°C, 5% CO2 in a humidified incubator to 80% confluency. Detachment was achieved by rinsing the cells with phosphate buffer saline followed by the addition of trypsin–EDTA (0.25% trypsin containing 0.01% EDTA). After 5 min, the reaction was inhibited through the addition of supplemented media.
(§2) Cell viability was assessed through the method described by Lall et al., using Presto Blue as the viability reagent. The cells were seeded in a flat‐bottom 96‐well plate (100 µL) at a concentration of 1.0 × 10^6 cells/mL and allowed to adhere for 24 h. The samples were prepared in DMSO at a stock concentration of 20 mM, serially diluted in complete media and added to the plate at a final concentration range of 0.78–100 µM. Controls included a vehicle control (2% DMSO), an untreated cell control, a 0% control (no cells) and actinomycin D, as the positive control, at a final test concentration range of 3.9 × 10^−4 to 0.05 µg/mL. Cells were incubated for 72 h, followed by the addition of 20 µL of Presto Blue reagent to all the wells and an additional 2 h incubation. Cell viability was measured using a VICTOR Nivo Multimode Microplate Reader (PerkinElmer) at an excitation/emission wavelength of 540/590 nm.
(§3) All results are presented as the mean ± standard deviation (where applicable) of experiments done in triplicate and in two or three independent experiments (as stated in each methods section). Descriptive analysis was used to directly compare and rank the compounds and derivatives based on their activity in the biological assays. Additionally, by comparing the antibiofilm activity to the antibacterial activity and the antibacterial activity to the cytotoxicity, selectivity indices were used to assess the preferential activity of the compounds.

In data set [5] the test system is human monocyte (U937) cell line. In words: Cytotoxicity, Presto Blue cell viability. The settings on record: selective index, IC50 (U937)/MIC against Mycobacterium smegmatis. Format: cell-based. The protocol:
as §1, §2, §3

With `O=C(O)c1cn(C2CC2)c2cc(N3CCNCC3)c(F)cc2c1=O` [Ciprofloxacin, reference compound], the “M. smeg BSI (MIC/MBIC)” value in data set [1] stood at 2.
Turning to `Oc1cccc2cccnc12` [HQ‐1, 8‐hydroxyquinoline, reference compound], the “M. smeg BSI (MIC/MBIC)” value in data set [1] worked out at 1. For the same compound, the “fold increase in antibacterial activity against MRSA” value (“fold increase” for short) in data set [2] was 2 fold. For the same compound, in data set [3], the “MRSA BSI (MIC/MBIC)” value amounted to 1. For the same compound, the “Vero SI” value in data set [4] was 15.3. Also, the “U937 SI” value in data set [5] was found to be 10.5.
As to `Cc1ccc2c(Cl)cc(Cl)c(O)c2n1` [HQ‐2, 5,7‐dichloro‐8‐hydroxy‐2‐methylquinoline, reference compound], in data set [1], the “M. smeg BSI (MIC/MBIC)” value amounted to 0.5. Moreover, in data set [2], the “fold increase” value is 2 fold. Further, in data set [3], the “MRSA BSI (MIC/MBIC)” value stood at 0.03. In addition, the “Vero SI” value in data set [4] is 53.1. The “U937 SI” value in data set [5] was 1.7.
With `Cc1ccc2cccc(O)c2n1` [HQ‐3, 2‐methyl‐8‐hydroxyquinoline, reference compound], in data set [1], the “M. smeg BSI (MIC/MBIC)” value is reported as 1. Also, the “MRSA BSI (MIC/MBIC)” value in data set [3] was 0.5.
Consider `O=Cc1ccc2cccc(O)c2n1` [HQ‐4, 8‐hydroxyquinoline‐2‐carbaldehyde, reference compound], for which the “fold increase” value in data set [2] is given as 2 fold. Also, the “MRSA BSI (MIC/MBIC)” value in data set [3] came to 0.5. Also, the “U937 SI” value in data set [5] was determined as 0.05.
`CCCCCOc1cccc2cccnc12` [QD‐1]: the “MRSA BSI (MIC/MBIC)” value in data set [3] is given as 1.
On the same count and under the same terms, to `CC(C)CCOc1cccc2cccnc12` [QD‐2] belongs 1.
On to `CC(C)=CCOc1cccc2cccnc12` [QD‐3], for which the “M. smeg BSI (MIC/MBIC)” value in data set [1] was found to be 1. The “MRSA BSI (MIC/MBIC)” value in data set [3] is listed as 0.5. For the same compound, the “U937 SI” value in data set [5] turned out to be 0.8.
Regarding `Cc1ccc2cccc(OCCC(C)C)c2n1` [QD‐8], in data set [1], the “M. smeg BSI (MIC/MBIC)” value is given as 1.
Consider `CCCCCOC(=O)c1ccc2cccc(OCCCCC)c2n1` [QD‐10, pentyl 8‐(pentyloxy)quinoline‐2‐carboxylate], for which the “Vero SI” value in data set [4] is 0.8. In data set [5], the “U937 SI” value was found to be 0.7.
Regarding `CC(C)CCOC(=O)c1ccc2cccc(OCCC(C)C)c2n1` [QD‐11, isopentyl 8‐(isopentyloxy)quinoline‐2‐carboxylate], in data set [4], the “Vero SI” value is 0.7.
On to `CC(C)=CCOc1cccc2ccc(C=O)nc12` [QD‐12], for which, in data set [1], the “M. smeg BSI (MIC/MBIC)” value is given as approximately 8. In addition, in data set [2], the “fold increase” value is listed as “up to 2 fold”. Further, the “MRSA BSI (MIC/MBIC)” value in data set [3] is 0.5. Moreover, the “Vero SI” value in data set [4] is listed as 1. Also, the “U937 SI” value in data set [5] was 1.
